Among all 580,000 compounds or so, about 6,100 (1.1%) were called active. Inconclusive results, whose numbers are uncertain, are shown with a selection of clear calls. Calls come from the whole dose curve; as a rule, active = well fitted inhibition curve with a large enough effect; inconclusive = small, poorly fitted or top-dose-only effect, or another doubt; inactive = no such curve, though single readings can be large or run the other way. A potency beside an inconclusive call is a rough fit, not a confirmed value.
molecular target: Polyunsaturated fatty acid lipoxygenase ALOX12 (Homo sapiens) (UniProt P18054); assay: Primary qHTS assay for inhibitors of human arachidonate 12S-lipoxygenase (ALOX12): Round 2; conditions: purified 12hLO, xylenol orange hydroperoxide absorbance; activity change, negative = inhibition: at 108 µM (top of the series) unless noted
Procedure, shortened: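 Purified human 12hLO at 150 nM in 25 mM Hepes, 0.01% Triton X-100, pH 7.0, preincubated 15 min at room temperature with compound. Reaction started with 40 uM arachidonic acid, 30 min at room temperature. Hydroperoxide measured by Fe-xylenol orange, 573/405 nm absorbance ratio.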
% is set by controls: 0 for no effect and ±100 for the full control effect; potency is the fitted concentration of half-maximal effect.

Amino acid sequences for entries named in this document (tags omitted). A change or cut given only in a name is not applied to a line headed by its entry.
UniProt P18054: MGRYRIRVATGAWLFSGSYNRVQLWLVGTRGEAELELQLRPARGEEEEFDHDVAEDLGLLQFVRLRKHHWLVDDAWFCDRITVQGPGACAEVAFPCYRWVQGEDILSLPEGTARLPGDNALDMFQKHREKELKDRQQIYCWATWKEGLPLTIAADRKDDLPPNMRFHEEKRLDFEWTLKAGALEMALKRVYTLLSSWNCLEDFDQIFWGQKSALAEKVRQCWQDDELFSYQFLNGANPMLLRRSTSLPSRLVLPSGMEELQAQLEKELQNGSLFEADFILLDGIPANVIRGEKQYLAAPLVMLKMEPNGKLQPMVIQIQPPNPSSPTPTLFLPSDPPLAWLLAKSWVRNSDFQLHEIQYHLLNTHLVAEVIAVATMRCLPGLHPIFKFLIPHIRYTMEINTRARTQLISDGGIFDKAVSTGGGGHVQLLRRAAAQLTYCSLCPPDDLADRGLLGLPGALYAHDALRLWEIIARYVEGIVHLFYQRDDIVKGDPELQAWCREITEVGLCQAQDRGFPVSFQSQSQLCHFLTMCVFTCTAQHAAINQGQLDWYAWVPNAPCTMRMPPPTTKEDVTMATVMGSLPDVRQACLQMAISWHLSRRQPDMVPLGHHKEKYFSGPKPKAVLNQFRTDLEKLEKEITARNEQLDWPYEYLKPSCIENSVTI

Structure (SMILES) | Potency | activity change, negative = inhibition
COC(=O)Cn1c(SC(C)C(=O)c2ccc(F)c(F)c2)nc2ccccc2c1=O (configuration not stated) | inconclusive: 141 µM [inhibitor, single point] | 
CCCOc1ccc(C(=O)N(Cc2ccc(Cl)cc2)Cc2ccco2)cc1 | inconclusive: 100 µM [inhibitor, single point] | 
CCOC(=O)c1ccc(NC(=O)Nc2cc(C)on2)cc1 | inconclusive: 35.5 µM [inhibitor, partial curve] | 
Clc1ccc(C2=NNC(=NCc3ccccc3)SC2)cc1 | inconclusive: 50.1 µM [inhibitor, partial curve, poor fit] | 
c1cn(CCCNCC2CCCCC2)cn1 | inconclusive: 11.2 µM [inhibitor, full curve] | 
CCOc1cccc(-c2nn3c(-c4ccco4)nnc3s2)c1 | inconclusive: 50.1 µM [inhibitor, partial curve, poor fit] | 
CC(CCc1ccc2c(c1)OCO2)NN (configuration not stated) | inconclusive: 10.2 µM [inhibitor, partial curve] | 
Nc1ncnc2c1ncn2[C@@H]1O[C@@H](CO)[C@H](O)[C@H]1O | inconclusive: 1.22 µM [inhibitor, full curve] | 
O=C(O)CCCNC(=O)CCCNC(=O)C(c1ccccc1)c1ccccc1 | inconclusive: 14.1 µM [inhibitor, partial curve, poor fit] | 
COc1cc(NC(=S)Nc2ccc(Br)cc2Cl)c(OC)cc1Cl | inconclusive: 28.2 µM [inhibitor, full curve, poor fit] | 
CCCCN(C)C(=O)CN1C(=O)c2cccnc2Oc2ccc(Cl)cc21 |  | inconclusive: -30.8% [inhibitor]
COc1ccc(OC)c(CN2CCC3(COC(=O)N3Cc3ccccc3)C2)c1 (configuration not stated) | inconclusive: 70.8 µM [inhibitor, partial curve] | 
CCc1c(C)n2nc(C)cc2[nH]c1=O |  | inactive: -22.8%
O=C([C@@H]1CCCN1C1CCNCC1)N1CCN(Cc2cccnc2)CC1 | inconclusive: 3.98 µM [inhibitor, full curve, poor fit] | 
Cc1ccc(Cl)cc1NC(=O)Cn1nnc2sc3c(c2c1=O)CCC(C(C)(C)C)C3 (configuration not stated) | inconclusive: 0.0794 µM [inhibitor, full curve, poor fit] | 
Cc1ccc(Nc2nc(C(=O)N3CCC(C(=O)N(C)Cc4ccccc4)CC3)cs2)cc1 | inconclusive: 2.51 µM [inhibitor, full curve, poor fit] | 
N#Cc1nc(NCC(F)F)nc(Nc2cc(F)cc(F)c2)n1 | inconclusive: 1.58 µM [inhibitor, full curve, poor fit] | 
COc1cc(C2=NOC(C(=O)NCc3cccnc3)C2)cc(OC)c1OC (configuration not stated) |  | inactive: 0%
Cc1ccc(NS(=O)(=O)c2ccc(OCC(=O)NCc3ccccn3)cc2)cc1 |  | inactive: 458%
Cn1ncc(N2CCC(C(=O)NC3CCCC3)C2)cc1=O (configuration not stated) | inconclusive: 22.4 µM [inhibitor, full curve, poor fit] | 
COCCOc1cc(NC(=O)CS(=O)CC(=O)N(C)C)c(Cl)cc1Cl (configuration not stated) |  | inactive: -4.52%

In the list so far, 7 have four or more nitrogen atoms:
Structure (SMILES) | Potency | activity change, negative = inhibition
CCOc1cccc(-c2nn3c(-c4ccco4)nnc3s2)c1 | inconclusive: 50.1 µM [inhibitor, partial curve, poor fit] | 
Nc1ncnc2c1ncn2[C@@H]1O[C@@H](CO)[C@H](O)[C@H]1O | inconclusive: 1.22 µM [inhibitor, full curve] | 
O=C([C@@H]1CCCN1C1CCNCC1)N1CCN(Cc2cccnc2)CC1 | inconclusive: 3.98 µM [inhibitor, full curve, poor fit] | 
Cc1ccc(Cl)cc1NC(=O)Cn1nnc2sc3c(c2c1=O)CCC(C(C)(C)C)C3 (configuration not stated) | inconclusive: 0.0794 µM [inhibitor, full curve, poor fit] | 
Cc1ccc(Nc2nc(C(=O)N3CCC(C(=O)N(C)Cc4ccccc4)CC3)cs2)cc1 | inconclusive: 2.51 µM [inhibitor, full curve, poor fit] | 
N#Cc1nc(NCC(F)F)nc(Nc2cc(F)cc(F)c2)n1 | inconclusive: 1.58 µM [inhibitor, full curve, poor fit] | 
Cn1ncc(N2CCC(C(=O)NC3CCCC3)C2)cc1=O (configuration not stated) | inconclusive: 22.4 µM [inhibitor, full curve, poor fit] | 

More compounds.

Structure (SMILES) | Potency | activity change, negative = inhibition
OC(c1ccccc1)(c1nc(-c2ccc3c(c2)OCO3)cs1)C(F)(F)F (configuration not stated) | inconclusive: 50.1 µM [inhibitor, partial curve, poor fit] | 
COc1ccc(CCNc2ncnc3c2cnn3-c2ccc(F)cc2)cc1 |  | inactive: 5.98%
S=C(Nc1ccccc1I)NC1CC1 | inconclusive: 10 µM [inhibitor, partial curve, poor fit] | 
Cc1c(NS(=O)(=O)c2cccs2)cccc1-c1nc2cccnc2s1 | inconclusive: 112 µM [inhibitor, single point] | 
Cc1cccc([C@@H]2[C@@H]3C(=O)N(Cc4ccccc4)C(=O)[C@@H]3[C@]3(Cc4ccc(Cl)cc4)C(=O)N(c4ccccc4)C(=O)N23)c1 | inconclusive: 70.8 µM [inhibitor, partial curve, poor fit] | 
C/C(O)=c1/c(=O)nc2cccc3c2=c1c1ccccc1c3=O | inconclusive: 35.5 µM [inhibitor, partial curve, poor fit] | 
O=C(NCc1cnn(-c2ccccc2)c1)C1CCC(=O)N(C2CC2)C1 (configuration not stated) | inconclusive: 35.5 µM [inhibitor, partial curve, poor fit] | 
c1csc(CNc2ncnc3ccc(-c4ccoc4)cc23)c1 | inactive | 
CC1=C(C(=O)Nc2ccccc2F)C(c2ccsc2)C2=C(CC(c3ccccc3)CC2=O)N1 (configuration not stated) |  | inactive: 19.9%
CCOC(=O)/C(=C\c1ccccc1)C(=O)c1cc(C(C)=O)c(Nc2ccccc2)s1 |  | inactive: -0.329%
C[C@@H](NC(=O)C1CC1)c1c(-c2ccc(F)cc2)noc1C(=O)O | active: 50.1 µM | 
COc1cc(/C=C2/SC(=S)N(Cc3ccccc3)C2=O)ccc1O |  | inactive: 8.17%
COCC(C)n1c(C)cc(C(=O)COC(=O)c2ccc3ncsc3c2)c1C (configuration not stated) | inconclusive: 112 µM [inhibitor, single point] | 
COc1ccc(N(Cc2cc3cc(OC)ccc3[nH]c2=O)C(=O)c2cccc(Cl)c2)cc1 |  | inactive: -5.99%
O=C(CCC(=O)N1CCCCCC1)Nc1ccc([N+](=O)[O-])cc1 |  | inactive: 2.51%
CC(COc1cc(F)cc(C#N)c1)CN1CCC(C(O)(c2ccccc2)c2ccccc2)CC1 (configuration not stated) | inconclusive: 56.2 µM [inhibitor, partial curve, poor fit] | 
COc1ccc(C(c2nnnn2Cc2cccs2)N2CCN(c3ccccc3F)CC2)cc1OC (configuration not stated) | inconclusive: 39.8 µM [inhibitor, partial curve, poor fit] | 
CCc1ccc(NC(=O)COC(=O)/C=C/c2ccco2)cc1 | inconclusive: 44.7 µM [inhibitor, partial curve, poor fit] | 
Cc1ccc(Cc2c(-c3ccccc3)nc3c4ccccc4ccn23)cc1 | inconclusive: 35.5 µM [inhibitor, partial curve, poor fit] | 
Cc1ccccc1-n1c(-c2ccc(=O)[nH]n2)n[nH]c1=S | inconclusive: 89.1 µM [inhibitor, partial curve, poor fit] | 
Cc1cc(C)cc(NC(=O)Cn2c(N3CCN(c4ccccc4)CC3)nc(C)cc2=O)c1 | inconclusive: 44.7 µM [inhibitor, partial curve] | 

— PubChem BioAssay AID1671190 (National Center for Advancing Translational Sciences (NCATS), 2021)
